Measured values published in paper PMC9509598.
These are yes or no findings as the source states them, for the method shown. For part of these data: Binding seen in cells or lysates may run through a third protein. Some results given as binding are weak or reduced against the parent protein; the word gives no strength. For part of these data: Tags and fused reporters may be left off the sequences shown.

The chains behind the UniProt entries cited, without tags or fusion partners. Where a name states a change or a piece, a line headed by the entry shows the natural chain unless it says otherwise. Residues count along the entry.
UniProt Q6ZW49: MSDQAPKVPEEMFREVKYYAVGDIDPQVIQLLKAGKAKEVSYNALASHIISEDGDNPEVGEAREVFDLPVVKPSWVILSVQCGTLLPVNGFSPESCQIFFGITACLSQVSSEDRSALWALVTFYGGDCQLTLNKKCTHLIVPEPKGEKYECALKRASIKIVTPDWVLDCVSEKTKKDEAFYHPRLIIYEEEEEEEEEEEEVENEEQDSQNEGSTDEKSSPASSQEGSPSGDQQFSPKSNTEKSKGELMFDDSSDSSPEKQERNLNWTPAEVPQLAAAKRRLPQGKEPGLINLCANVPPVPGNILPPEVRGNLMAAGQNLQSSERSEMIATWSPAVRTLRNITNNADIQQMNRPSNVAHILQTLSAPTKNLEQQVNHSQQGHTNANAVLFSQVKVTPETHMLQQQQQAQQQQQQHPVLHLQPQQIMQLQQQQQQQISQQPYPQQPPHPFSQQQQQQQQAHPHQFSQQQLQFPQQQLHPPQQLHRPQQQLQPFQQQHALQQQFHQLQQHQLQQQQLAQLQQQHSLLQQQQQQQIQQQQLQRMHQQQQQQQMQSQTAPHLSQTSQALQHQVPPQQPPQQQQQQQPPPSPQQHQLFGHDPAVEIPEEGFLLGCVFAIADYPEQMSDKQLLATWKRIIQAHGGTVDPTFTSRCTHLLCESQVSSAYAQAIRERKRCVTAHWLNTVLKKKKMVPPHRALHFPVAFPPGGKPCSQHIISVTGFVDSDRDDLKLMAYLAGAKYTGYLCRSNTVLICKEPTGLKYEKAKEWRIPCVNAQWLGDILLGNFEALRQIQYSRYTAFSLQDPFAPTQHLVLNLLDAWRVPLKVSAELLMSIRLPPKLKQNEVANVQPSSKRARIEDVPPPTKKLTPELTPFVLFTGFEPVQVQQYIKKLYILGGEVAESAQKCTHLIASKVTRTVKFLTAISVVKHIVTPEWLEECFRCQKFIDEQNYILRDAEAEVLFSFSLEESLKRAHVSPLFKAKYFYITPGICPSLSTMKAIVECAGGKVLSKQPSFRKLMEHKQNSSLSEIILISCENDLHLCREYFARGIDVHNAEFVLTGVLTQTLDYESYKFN
Myc-PTIP-NM (codon 1–796): residues 1-796 of Q6ZW49
Myc-PTIP-MC (codon 391–1069): residues 391-1069 of Q6ZW49

T1: Mps1 N-terminus (codon 1–517) (UniProt P33981)
T1 sequence: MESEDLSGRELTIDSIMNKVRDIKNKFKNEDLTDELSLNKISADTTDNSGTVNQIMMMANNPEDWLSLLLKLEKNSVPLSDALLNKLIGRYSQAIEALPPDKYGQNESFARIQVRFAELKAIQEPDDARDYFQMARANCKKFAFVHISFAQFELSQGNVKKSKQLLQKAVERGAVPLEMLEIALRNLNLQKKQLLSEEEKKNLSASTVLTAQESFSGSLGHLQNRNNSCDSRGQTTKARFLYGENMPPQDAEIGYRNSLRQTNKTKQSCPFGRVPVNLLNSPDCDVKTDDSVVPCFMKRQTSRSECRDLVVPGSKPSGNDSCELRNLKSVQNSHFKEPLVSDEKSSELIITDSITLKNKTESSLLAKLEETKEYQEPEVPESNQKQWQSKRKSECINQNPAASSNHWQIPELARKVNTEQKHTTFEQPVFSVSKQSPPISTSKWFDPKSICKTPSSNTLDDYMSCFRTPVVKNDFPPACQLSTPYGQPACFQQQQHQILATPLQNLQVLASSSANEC

B1: HA-Mps1 (protein, UniProt P33981 1-857)
chain: MESEDLSGRELTIDSIMNKVRDIKNKFKNEDLTDELSLNKISADTTDNSGTVNQIMMMANNPEDWLSLLLKLEKNSVPLSDALLNKLIGRYSQAIEALPPDKYGQNESFARIQVRFAELKAIQEPDDARDYFQMARANCKKFAFVHISFAQFELSQGNVKKSKQLLQKAVERGAVPLEMLEIALRNLNLQKKQLLSEEEKKNLSASTVLTAQESFSGSLGHLQNRNNSCDSRGQTTKARFLYGENMPPQDAEIGYRNSLRQTNKTKQSCPFGRVPVNLLNSPDCDVKTDDSVVPCFMKRQTSRSECRDLVVPGSKPSGNDSCELRNLKSVQNSHFKEPLVSDEKSSELIITDSITLKNKTESSLLAKLEETKEYQEPEVPESNQKQWQSKRKSECINQNPAASSNHWQIPELARKVNTEQKHTTFEQPVFSVSKQSPPISTSKWFDPKSICKTPSSNTLDDYMSCFRTPVVKNDFPPACQLSTPYGQPACFQQQQHQILATPLQNLQVLASSSANECISVKGRIYSILKQIGSGGSSKVFQVLNEKKQIYAIKYVNLEEADNQTLDSYRNEIAYLNKLQQHSDKIIRLYDYEITDQYIYMVMECGNIDLNSWLKKKKSIDPWERKSYWKNMLEAVHTIHQHGIVHSDLKPANFLIVDGMLKLIDFGIANQMQPDTTSVVKDSQVGTVNYMPPEAIKDMSSSRENGKSKSKISPKSDVWSLGCILYYMTYGKTPFQQIINQISKLHAIIDPNHEIEFPDIPEKDLQDVLKCCLKRDPKQRISIPELLAHPYVQIQTHPVNQMAKGTTEEMKYVLGQLVGLNSPNSILKAAKTLYEHYSGGESHNSSSSKTFEKKRGKK

Experiments:
[1] = target: T1, Mps1 N-terminus (codon 1–517); experiment: two-hybrid; two-hybrid screen of Mps1 N-terminus (codon 1-517); not published
[2] = target: Myc-PTIP-MC (codon 391–1069) (UniProt Q6ZW49); experiment: co-IP; HeLa Tet-on cells cotransfected with HA-Mps1 and Myc-PTIP truncations for 24 h, arrested in M phase with nocodazole; lysis buffer 25 mM Tris-HCl pH 7.4, 150 mM NaCl, 1% NP-40, 1 mM EDTA, 5% glycerol; anti-c-Myc magnetic beads, 4 °C, 2 h; Western blot
[3] = target: Myc-PTIP-NM (codon 1–796) (UniProt Q6ZW49); experiment: as above

Molecule | binding [1] | binding [2] | binding [3]
truncated PTIP (codon 423–1069) (from UniProt Q6ZW49 423-1069) (domain or fragment) | binds |  | 
B1 |  | binds | binds
